Reference: the supplement of paper PMC10849652
Some of the results follow.

The chains behind the UniProt entries cited, without tags or fusion partners. Where a name states a change or a piece, a line headed by the entry shows the natural chain unless it says otherwise.
UniProt P51580: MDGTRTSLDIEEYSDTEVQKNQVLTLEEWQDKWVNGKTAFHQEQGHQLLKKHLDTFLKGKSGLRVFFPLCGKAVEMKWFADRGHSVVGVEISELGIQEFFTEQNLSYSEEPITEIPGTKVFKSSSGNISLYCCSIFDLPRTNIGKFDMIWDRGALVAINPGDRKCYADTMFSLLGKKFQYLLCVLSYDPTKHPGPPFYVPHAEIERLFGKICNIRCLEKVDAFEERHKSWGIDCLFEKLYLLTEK
UniProt Q9NXH9: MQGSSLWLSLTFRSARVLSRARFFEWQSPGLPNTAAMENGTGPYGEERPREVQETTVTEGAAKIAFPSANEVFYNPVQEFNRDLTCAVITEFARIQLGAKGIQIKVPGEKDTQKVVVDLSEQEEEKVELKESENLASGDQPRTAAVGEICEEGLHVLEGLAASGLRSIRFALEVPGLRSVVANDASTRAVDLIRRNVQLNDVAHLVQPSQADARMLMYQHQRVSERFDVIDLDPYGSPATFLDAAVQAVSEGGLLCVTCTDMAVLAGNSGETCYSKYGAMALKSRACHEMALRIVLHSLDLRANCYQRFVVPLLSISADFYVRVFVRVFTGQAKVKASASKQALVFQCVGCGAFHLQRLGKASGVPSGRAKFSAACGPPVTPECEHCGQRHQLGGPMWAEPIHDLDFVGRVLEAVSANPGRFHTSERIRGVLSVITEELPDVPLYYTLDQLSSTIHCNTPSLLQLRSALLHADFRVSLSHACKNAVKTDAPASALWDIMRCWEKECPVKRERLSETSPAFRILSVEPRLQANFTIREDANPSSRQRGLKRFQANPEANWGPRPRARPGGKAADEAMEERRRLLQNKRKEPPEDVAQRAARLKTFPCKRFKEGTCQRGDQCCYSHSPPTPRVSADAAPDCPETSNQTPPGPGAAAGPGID
UniProt P60174, whole entry, looked up: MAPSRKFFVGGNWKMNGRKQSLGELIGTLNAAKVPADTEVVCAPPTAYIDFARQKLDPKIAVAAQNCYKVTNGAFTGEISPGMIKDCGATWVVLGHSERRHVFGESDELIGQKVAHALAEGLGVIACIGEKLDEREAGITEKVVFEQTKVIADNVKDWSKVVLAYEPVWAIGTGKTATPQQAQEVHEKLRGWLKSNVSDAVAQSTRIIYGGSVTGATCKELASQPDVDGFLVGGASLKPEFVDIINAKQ
UniProt Q8WWH5: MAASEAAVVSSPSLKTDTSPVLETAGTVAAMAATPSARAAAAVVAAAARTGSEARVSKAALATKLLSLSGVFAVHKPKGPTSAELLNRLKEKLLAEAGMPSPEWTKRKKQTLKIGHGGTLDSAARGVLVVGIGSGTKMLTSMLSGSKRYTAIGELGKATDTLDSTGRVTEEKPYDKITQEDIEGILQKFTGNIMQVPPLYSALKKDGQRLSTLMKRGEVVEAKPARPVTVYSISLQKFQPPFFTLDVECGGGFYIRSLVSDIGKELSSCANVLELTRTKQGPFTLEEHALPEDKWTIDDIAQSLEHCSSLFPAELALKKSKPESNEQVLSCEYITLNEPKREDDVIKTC
UniProt Q9ULW0, whole entry, looked up: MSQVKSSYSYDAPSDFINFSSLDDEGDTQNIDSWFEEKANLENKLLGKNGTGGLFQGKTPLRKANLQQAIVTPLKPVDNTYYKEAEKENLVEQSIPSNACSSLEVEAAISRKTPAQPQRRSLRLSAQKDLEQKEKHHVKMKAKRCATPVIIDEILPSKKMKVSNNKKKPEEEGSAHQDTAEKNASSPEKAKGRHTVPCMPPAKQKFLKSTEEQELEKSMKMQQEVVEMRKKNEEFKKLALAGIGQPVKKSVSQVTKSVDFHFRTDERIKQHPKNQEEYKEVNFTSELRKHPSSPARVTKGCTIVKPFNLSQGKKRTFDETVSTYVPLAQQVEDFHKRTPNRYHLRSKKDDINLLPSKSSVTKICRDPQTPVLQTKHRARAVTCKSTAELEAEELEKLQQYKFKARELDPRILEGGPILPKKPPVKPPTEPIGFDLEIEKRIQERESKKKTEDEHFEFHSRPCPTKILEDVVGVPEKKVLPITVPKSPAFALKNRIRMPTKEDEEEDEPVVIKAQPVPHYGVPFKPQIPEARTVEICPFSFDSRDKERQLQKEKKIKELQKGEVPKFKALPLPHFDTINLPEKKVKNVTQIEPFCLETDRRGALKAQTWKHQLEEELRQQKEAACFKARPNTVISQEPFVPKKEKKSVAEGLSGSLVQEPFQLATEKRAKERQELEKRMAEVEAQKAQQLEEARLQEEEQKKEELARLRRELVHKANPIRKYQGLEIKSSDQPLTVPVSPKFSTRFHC
UniProt Q9C0C2: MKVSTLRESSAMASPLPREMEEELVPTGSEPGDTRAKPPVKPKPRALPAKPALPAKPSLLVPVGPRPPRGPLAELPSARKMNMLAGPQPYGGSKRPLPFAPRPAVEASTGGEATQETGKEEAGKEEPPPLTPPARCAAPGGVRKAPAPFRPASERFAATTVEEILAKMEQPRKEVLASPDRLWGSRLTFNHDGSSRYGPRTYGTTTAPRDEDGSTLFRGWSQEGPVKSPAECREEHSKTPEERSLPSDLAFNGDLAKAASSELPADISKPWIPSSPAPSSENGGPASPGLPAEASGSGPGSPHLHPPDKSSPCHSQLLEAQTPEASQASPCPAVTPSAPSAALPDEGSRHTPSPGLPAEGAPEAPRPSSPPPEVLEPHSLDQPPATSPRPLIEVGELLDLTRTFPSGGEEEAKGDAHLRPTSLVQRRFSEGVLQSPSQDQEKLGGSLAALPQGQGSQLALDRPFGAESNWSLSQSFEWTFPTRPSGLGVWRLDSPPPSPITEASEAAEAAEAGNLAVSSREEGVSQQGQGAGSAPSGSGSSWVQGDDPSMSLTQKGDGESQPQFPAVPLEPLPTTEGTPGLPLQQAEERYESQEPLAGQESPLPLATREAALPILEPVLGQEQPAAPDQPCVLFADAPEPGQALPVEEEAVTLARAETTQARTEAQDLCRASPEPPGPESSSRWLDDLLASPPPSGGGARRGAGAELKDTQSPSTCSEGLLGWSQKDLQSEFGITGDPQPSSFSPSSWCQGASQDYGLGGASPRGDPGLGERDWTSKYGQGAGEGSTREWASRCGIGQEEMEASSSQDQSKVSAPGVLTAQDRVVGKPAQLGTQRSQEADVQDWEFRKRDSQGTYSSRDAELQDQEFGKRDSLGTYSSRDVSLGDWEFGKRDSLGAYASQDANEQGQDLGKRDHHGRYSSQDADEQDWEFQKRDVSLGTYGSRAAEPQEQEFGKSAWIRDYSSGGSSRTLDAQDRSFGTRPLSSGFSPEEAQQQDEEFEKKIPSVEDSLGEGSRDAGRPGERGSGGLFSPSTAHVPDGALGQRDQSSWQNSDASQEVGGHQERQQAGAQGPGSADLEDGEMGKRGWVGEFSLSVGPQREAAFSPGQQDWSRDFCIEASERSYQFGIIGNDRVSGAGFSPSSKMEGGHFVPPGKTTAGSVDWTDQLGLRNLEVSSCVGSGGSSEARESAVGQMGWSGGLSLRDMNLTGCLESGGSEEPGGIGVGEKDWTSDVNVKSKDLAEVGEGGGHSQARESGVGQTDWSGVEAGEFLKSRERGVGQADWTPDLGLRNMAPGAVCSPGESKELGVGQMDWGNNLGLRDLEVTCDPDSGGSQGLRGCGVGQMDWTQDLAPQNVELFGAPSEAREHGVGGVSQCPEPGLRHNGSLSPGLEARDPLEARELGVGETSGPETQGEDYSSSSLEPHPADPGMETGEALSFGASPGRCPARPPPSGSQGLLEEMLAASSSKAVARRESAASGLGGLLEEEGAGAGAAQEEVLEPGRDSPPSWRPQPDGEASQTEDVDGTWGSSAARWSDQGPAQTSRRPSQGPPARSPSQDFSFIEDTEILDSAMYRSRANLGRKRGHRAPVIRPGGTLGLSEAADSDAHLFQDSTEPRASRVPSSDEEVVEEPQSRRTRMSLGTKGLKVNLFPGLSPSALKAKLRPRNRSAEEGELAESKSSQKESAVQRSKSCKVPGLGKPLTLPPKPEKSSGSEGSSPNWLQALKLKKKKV
UniProt Q16890: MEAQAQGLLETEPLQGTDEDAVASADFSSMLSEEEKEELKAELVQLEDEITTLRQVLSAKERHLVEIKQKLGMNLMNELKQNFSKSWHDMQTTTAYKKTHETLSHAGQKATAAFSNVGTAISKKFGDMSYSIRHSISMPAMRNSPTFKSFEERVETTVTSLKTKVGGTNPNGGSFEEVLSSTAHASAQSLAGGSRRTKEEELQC
UniProt P20333, whole entry, looked up: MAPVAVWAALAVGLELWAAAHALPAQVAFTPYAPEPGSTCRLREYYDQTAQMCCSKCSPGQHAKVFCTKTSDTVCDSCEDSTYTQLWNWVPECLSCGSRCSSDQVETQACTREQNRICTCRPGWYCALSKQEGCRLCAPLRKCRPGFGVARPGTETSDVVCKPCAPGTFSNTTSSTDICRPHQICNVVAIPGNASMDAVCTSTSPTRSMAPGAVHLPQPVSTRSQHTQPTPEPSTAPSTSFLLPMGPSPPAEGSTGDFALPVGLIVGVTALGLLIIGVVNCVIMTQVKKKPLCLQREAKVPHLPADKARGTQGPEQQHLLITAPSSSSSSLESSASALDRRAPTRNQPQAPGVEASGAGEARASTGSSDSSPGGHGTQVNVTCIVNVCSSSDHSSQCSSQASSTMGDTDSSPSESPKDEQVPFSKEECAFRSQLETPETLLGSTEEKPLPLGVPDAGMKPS
UniProt Q9Y3Q8: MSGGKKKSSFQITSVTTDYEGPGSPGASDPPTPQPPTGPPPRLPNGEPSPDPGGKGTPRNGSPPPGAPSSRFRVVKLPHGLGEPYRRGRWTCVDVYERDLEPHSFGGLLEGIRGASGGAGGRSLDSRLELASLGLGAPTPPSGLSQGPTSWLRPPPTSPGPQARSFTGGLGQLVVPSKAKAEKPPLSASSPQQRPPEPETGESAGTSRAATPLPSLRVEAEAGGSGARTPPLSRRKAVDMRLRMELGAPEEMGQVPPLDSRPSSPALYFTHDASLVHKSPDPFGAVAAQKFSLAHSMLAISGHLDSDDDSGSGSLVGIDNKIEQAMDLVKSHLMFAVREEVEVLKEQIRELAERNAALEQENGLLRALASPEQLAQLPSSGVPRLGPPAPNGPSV
UniProt Q7Z4G4: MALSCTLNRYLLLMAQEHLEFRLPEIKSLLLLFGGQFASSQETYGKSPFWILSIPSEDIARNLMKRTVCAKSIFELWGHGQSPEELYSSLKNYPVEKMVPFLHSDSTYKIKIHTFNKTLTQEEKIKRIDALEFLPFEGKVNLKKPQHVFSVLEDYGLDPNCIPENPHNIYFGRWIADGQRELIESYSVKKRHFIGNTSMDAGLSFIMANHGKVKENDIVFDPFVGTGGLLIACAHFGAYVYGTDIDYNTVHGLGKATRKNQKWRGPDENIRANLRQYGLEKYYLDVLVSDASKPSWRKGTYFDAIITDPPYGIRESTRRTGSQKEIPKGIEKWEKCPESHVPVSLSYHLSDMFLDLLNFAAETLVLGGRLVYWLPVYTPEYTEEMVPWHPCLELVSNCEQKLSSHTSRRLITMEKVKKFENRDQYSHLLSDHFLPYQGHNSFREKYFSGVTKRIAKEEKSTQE
UniProt O43715: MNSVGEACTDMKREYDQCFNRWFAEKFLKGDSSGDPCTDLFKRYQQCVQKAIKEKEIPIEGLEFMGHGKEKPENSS
UniProt O96008: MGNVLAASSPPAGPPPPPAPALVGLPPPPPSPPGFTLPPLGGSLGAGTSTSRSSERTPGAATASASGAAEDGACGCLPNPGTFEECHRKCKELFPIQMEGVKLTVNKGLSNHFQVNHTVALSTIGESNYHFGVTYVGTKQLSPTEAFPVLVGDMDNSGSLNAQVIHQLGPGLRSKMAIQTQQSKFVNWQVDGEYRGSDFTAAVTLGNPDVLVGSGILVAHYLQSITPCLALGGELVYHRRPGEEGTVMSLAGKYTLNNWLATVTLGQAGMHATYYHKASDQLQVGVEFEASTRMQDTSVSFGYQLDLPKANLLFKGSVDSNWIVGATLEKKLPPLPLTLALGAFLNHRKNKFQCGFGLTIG
UniProt Q13049: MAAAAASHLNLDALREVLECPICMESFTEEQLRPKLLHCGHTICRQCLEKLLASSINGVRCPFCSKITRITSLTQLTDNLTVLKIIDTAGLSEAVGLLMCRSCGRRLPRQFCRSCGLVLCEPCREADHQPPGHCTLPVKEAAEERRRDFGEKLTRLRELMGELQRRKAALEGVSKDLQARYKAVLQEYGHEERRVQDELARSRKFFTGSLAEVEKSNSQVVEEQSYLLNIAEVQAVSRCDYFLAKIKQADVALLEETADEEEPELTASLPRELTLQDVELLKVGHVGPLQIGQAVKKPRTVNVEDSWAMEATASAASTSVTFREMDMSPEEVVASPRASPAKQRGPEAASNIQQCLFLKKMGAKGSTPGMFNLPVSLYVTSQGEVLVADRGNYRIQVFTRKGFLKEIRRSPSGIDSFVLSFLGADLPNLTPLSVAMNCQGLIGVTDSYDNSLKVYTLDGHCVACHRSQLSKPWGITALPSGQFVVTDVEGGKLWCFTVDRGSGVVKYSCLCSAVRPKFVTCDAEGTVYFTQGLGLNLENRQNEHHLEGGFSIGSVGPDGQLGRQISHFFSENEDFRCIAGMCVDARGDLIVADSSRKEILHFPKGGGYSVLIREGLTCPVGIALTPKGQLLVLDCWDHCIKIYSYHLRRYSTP

Assays:
Assay in all cases: log2 fold change, soluble protein after heating vs DMSO (PISA); higher = thermal stabilisation; K562 cells, 10 uM, 30 min; active = over 0.2 and 3.5 SD of the protein, either way, in both replicates (recomputed)
[1] = compound: CC1=C(C=C(C=C1)NC(=O)C2=CC(=CC=C2)C(C)(C)C#N)NC3=CC4=C(C=C3)N=CN(C4=O)C
Outline: (§1)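 K562 cells at 2×10^6 cells/mL were given 10 μM compound for 30 min. Aliquots then went through 3 min of heating across 48°C-58°C, were pooled, and were extracted in PBS with 0.5% NP-40 at 4°C, and the supernatant after 21,000xg for 90 min was quantified by TMTpro 16plex LC-MS/MS with channel sums equalised. Thermal stability relative to control samples, from duplicates, is given as log2 fold change.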

[2] = compound: CC1=C(C=C(C=C1)NC(=O)C2=CC(=CC=C2)N(C)C)NC(=O)C3=CC=C(C=C3)O
Outline: as §1

[3] = compound: CC1=CC=C(C=C1)SC2=C3C=C(SC3=CN=C2)C(=O)N
Outline: as §1

[4] = compound: CC1=NC(=CC=C1)C2=C(N=C(N2)C(C)(C)C)C3=CC4=NC=CN=C4C=C3
Outline: as §1

Nexturastat A = compound: CCCCN(Cc1ccc(C(=O)NO)cc1)C(=O)Nc1ccccc1 [Nexturastat A]
Outline: as §1

vemurafenib = compound: CCCS(=O)(=O)Nc1ccc(F)c(C(=O)c2c[nH]c3ncc(-c4ccc(Cl)cc4)cc23)c1F [vemurafenib]
Outline: as §1

[5] = compound: CCCS(=O)(=O)Nc1ccc(F)c(C(=O)c2c[nH]c3ncc(Cl)cc23)c1F
Outline: as §1

[6] = compound: CCCc1cc(C)[nH]c(=O)c1CNC(=O)c1cc(-c2ccnc(N3CCN(C)CC3)c2)cc2c1cnn2C(C)C
Outline: as §1

givinostat = compound: CCN(CC)Cc1ccc2cc(COC(=O)Nc3ccc(C(=O)NO)cc3)ccc2c1 [givinostat]
Outline: as §1

barasertib = compound: CCN(CCCOc1ccc2c(Nc3cc(CC(=O)Nc4cccc(F)c4)[nH]n3)ncnc2c1)CCOP(=O)(O)O [barasertib]
Outline: as §1

[7] = compound: CC[C@@H]1C(=O)N(C)c2cnc(Nc3ccc(C(=O)NC4CCN(C)CC4)cc3OC)nc2N1C1CCCC1
Outline: as §1

volasertib = compound: CC[C@@H]1C(=O)N(C)c2cnc(Nc3ccc(C(=O)N[C@H]4CC[C@H](N5CCN(CC6CC6)CC5)CC4)cc3OC)nc2N1C(C)C [volasertib]
Outline: as §1

[8] = compound: CC[C@H](C)N1C=C(C2=C(C=C(C=C21)C3=CN=C(C=C3)N4CCNCC4)C(=O)NCC5=C(C=C(NC5=O)C)C)C
Outline: as §1

epoxomicin = compound: CC[C@H](C)[C@@H](C(=O)N[C@@H]([C@@H](C)O)C(=O)N[C@@H](CC(C)C)C(=O)[C@]1(CO1)C)NC(=O)[C@H]([C@@H](C)CC)N(C)C(=O)C [epoxomicin]
Outline: as §1

[9] = compound: CCn1c(C(=O)N(C2CC2)C2CC2)cc2c3c(ncn3C)c(Nc3cc(C)n(C)n3)nc21
Outline: as §1

[10] = compound: CCn1cc(-c2ccnc3[nH]c(-c4cccc(CN(C)C)c4)cc23)c(-c2ccc(NC(=O)N(C)C)cc2)n1
Outline: as §1

[11] = compound: CN(C)CC(=O)Nc1ccc2[nH]c(=O)c3ccccc3c2c1
Outline: as §1

rosiglitazone = compound: CN(CCOC1=CC=C(C=C1)C[C@H]2C(=O)NC(=O)S2)C3=CC=CC=N3 (racemic) [rosiglitazone]
Outline: as §1

[12] = compound: CN1C2=C(C3=C1C(=O)N(N=C3)CC4=CC(=CC=C4)N)SC(=C2)S(=O)C
Outline: as §1

[13] = compound: CN1CCC(CNc2ccc3ncc(-c4cccc(OC(F)(F)F)c4)n3n2)CC1
Outline: as §1

Measured: log2 fold change

TPMT (UniProt P51580)
inactive: [1] -0.004 | [2] -0.003 | [3] 0.008 | [4] 0.046 | Nexturastat A -0.158 | vemurafenib 0.059 | [5] 0.07 | [6] 0.026 | givinostat -0.037 | barasertib 0.011 | [7] -0.022 | volasertib 0 | [8] 0.007 | epoxomicin 0.025 | [9] 0.048 | [10] -0.019 | [11] -0.005 | rosiglitazone 0.035 | [12] -0.072 | [13] -0.042

TRMT1 (UniProt Q9NXH9)
inactive: [1] 0.003 | [2] 0.001 | [3] -0.001 | [4] 0.017 | Nexturastat A -0.083 | vemurafenib -0.007 | [5] 0.023 | [6] -0.04 | givinostat 0.01 | barasertib 0.003 | [7] 0.036 | volasertib -0.033 | [8] -0.064 | epoxomicin -0.019 | [9] 0.005 | [10] 0.011 | [11] -0.012 | rosiglitazone 0 | [12] -0.023 | [13] -0.025

TPI1 (UniProt P60174)
inactive: [1] -0.004 | [2] 0 | [3] 0.009 | [4] 0.011 | Nexturastat A -0.02 | vemurafenib -0.018 | [5] -0.034 | [6] -0.049 | givinostat 0.006 | barasertib -0.004 | [7] 0.01 | volasertib 0.048 | [8] -0.028 | epoxomicin 0.012 | [9] 0.004 | [10] 0 | [11] -0.02 | rosiglitazone 0.009 | [12] -0.061 | [13] -0.072

TRUB1 (UniProt Q8WWH5)
inactive: [1] -0.013 | [2] 0.003 | [3] -0.009 | [4] 0.049 | Nexturastat A -0.025 | vemurafenib 0.08 | [5] 0.025 | [6] -0.067 | givinostat -0.006 | barasertib -0.006 | [7] -0.034 | volasertib -0.147 | [8] 0.066 | epoxomicin 0.014 | [9] -0.016 | [10] -0.022 | [11] 0.074 | rosiglitazone 0.011 | [12] -0.016 | [13] -0.075

TPX2 (UniProt Q9ULW0)
inactive: [1] 0.009 | [2] 0.026 | [3] -0.039 | [4] 0.009 | Nexturastat A -0.035 | vemurafenib -0.036 | [5] -0.019 | [6] -0.055 | givinostat -0.165 | barasertib -0.115 | [7] 0.084 | volasertib 0.09 | [8] -0.006 | epoxomicin 0.047 | [9] 0.007 | [10] 0.079 | [11] -0.075 | rosiglitazone -0.044 | [12] 0.006 | [13] -0.021

TNKS1BP1 (UniProt Q9C0C2)
inactive: [1] -0.051 | [2] -0.014 | [3] -0.015 | [4] -0.042 | Nexturastat A 0.03 | vemurafenib 0.015 | [5] -0.023 | [6] -0.025 | givinostat -0.028 | barasertib -0.02 | [7] 0.028 | volasertib 0.125 | [8] -0.058 | epoxomicin -0.018 | [9] 0.011 | [10] 0.025 | [11] -0.016 | rosiglitazone -0.015 | [12] -0.018 | [13] 0.013

TPM1 (UniProt H7BYY1)
inactive: [1] -0.038 | [2] 0.021 | [3] -0.035 | [4] -0.023 | Nexturastat A 0.002 | vemurafenib -0.074 | [5] -0.024 | [6] -0.035 | givinostat -0.037 | barasertib 0.029 | [7] 0.013 | volasertib 0.067 | [8] -0.055 | epoxomicin 0.041 | [9] 0.028 | [10] 0.036 | [11] 0.004 | rosiglitazone -0.03 | [12] 0.017 | [13] 0.042

TPD52L1 (UniProt Q16890)
inactive: [1] -0.016 | [2] 0.056 | [3] 0.005 | [4] 0.033 | Nexturastat A -0.056 | vemurafenib 0.006 | [5] 0.026 | [6] -0.04 | givinostat -0.009 | barasertib -0.028 | [7] 0.04 | volasertib -0.022 | [8] -0.012 | epoxomicin 0.024 | [9] 0.04 | [10] -0.001 | [11] 0.03 | rosiglitazone 0.035 | [12] -0.014 | [13] 0.002

TNFRSF1B (UniProt P20333)
inactive: [1] -0.092 | [2] 0.045 | [3] -0.038 | [4] 0.015 | Nexturastat A 0.037 | vemurafenib -0.042 | [5] 0.073 | [6] -0.048 | givinostat -0.071 | barasertib -0.05 | [7] 0.061 | volasertib 0.109 | [8] 0.02 | epoxomicin -0.042 | [9] 0.019 | [10] -0.052 | [11] -0.15 | rosiglitazone -0.016 | [12] -0.02 | [13] -0.035

TRAP1 (UniProt Q12931)
inactive: [1] -0.016 | [2] 0.008 | [3] -0.004 | [4] 0.025 | Nexturastat A -0.051 | vemurafenib 0.016 | [5] -0.001 | [6] -0.03 | givinostat -0.012 | barasertib -0.004 | [7] -0.014 | volasertib 0.074 | [8] -0.026 | epoxomicin 0.034 | [9] 0.035 | [10] 0.008 | [11] -0.021 | rosiglitazone -0.004 | [12] -0.049 | [13] 0.011

TSC22D4 (UniProt Q9Y3Q8)
inactive: [1] 0.019 | [2] 0 | [3] -0.027 | [4] 0.004 | Nexturastat A 0.027 | vemurafenib -0.02 | [5] 0.003 | [6] -0.008 | givinostat 0.011 | barasertib 0.031 | [7] -0.041 | volasertib -0.079 | [8] 0.034 | epoxomicin -0.01 | [9] 0.002 | [10] 0.01 | [11] -0.01 | rosiglitazone -0.003 | [12] 0 | [13] -0.032

2 entries drawn at random from the list so far, as already listed:
TRAP1 (UniProt Q12931)
inactive: [1] -0.016 | [2] 0.008 | [3] -0.004 | [4] 0.025 | Nexturastat A -0.051 | vemurafenib 0.016 | [5] -0.001 | [6] -0.03 | givinostat -0.012 | barasertib -0.004 | [7] -0.014 | volasertib 0.074 | [8] -0.026 | epoxomicin 0.034 | [9] 0.035 | [10] 0.008 | [11] -0.021 | rosiglitazone -0.004 | [12] -0.049 | [13] 0.011

TNFRSF1B (UniProt P20333)
inactive: [1] -0.092 | [2] 0.045 | [3] -0.038 | [4] 0.015 | Nexturastat A 0.037 | vemurafenib -0.042 | [5] 0.073 | [6] -0.048 | givinostat -0.071 | barasertib -0.05 | [7] 0.061 | volasertib 0.109 | [8] 0.02 | epoxomicin -0.042 | [9] 0.019 | [10] -0.052 | [11] -0.15 | rosiglitazone -0.016 | [12] -0.02 | [13] -0.035

Later entries.

TRMU (UniProt O75648)
inactive: [1] 0.007 | [2] -0.103 | [3] -0.06 | [4] -0.009 | Nexturastat A -0.057 | vemurafenib 0 | [5] -0.047 | [6] 0.047 | givinostat 0.039 | barasertib 0.015 | [7] -0.014 | volasertib -0.105 | [8] -0.022 | epoxomicin 0.059 | [9] -0.031 | [10] -0.043 | [11] 0.011 | rosiglitazone 0.026 | [12] -0.059 | [13] 0.007

TRMT11 (UniProt Q7Z4G4)
inactive: [1] -0.072 | [2] 0.017 | [3] 0.007 | [4] 0.037 | Nexturastat A -0.07 | vemurafenib 0.012 | [5] 0.038 | [6] -0.003 | givinostat 0.004 | barasertib 0.021 | [7] 0 | volasertib -0.039 | [8] 0.035 | epoxomicin -0.009 | [9] 0.029 | [10] -0.044 | [11] 0.004 | rosiglitazone -0.036 | [12] -0.09 | [13] 0.024

TRIAP1 (UniProt O43715)
inactive: [1] -0.012 | [2] -0.135 | [3] 0.444 | [4] 0.117 | Nexturastat A -0.018 | vemurafenib 0.065 | [5] -0.362 | [6] 0.003 | givinostat 0.019 | barasertib 0.037 | [7] 0.018 | volasertib -0.076 | [8] -0.05 | epoxomicin 0.198 | [9] -0.039 | [10] 0.099 | [11] -0.016 | rosiglitazone -0.039 | [12] -0.08 | [13] 0.116

TOMM40 (UniProt O96008)
inactive: [1] 0.045 | [2] 0.028 | [3] 0.006 | [4] 0.034 | Nexturastat A -0.13 | vemurafenib 0.001 | [5] 0.008 | [6] -0.02 | givinostat -0.007 | barasertib -0.008 | [7] 0.038 | volasertib 0.017 | [8] -0.038 | epoxomicin 0.008 | [9] 0.004 | [10] -0.024 | [11] -0.007 | rosiglitazone 0.02 | [12] -0.039 | [13] 0.089

TRIM32 (UniProt Q13049)
inactive: [1] 0.04 | [2] 0.239 | [3] -0.016 | [4] 0.003 | Nexturastat A -0.013 | vemurafenib 0.106 | [5] -0.059 | [6] -0.282 | givinostat -0.003 | barasertib -0.015 | [7] 0 | volasertib 0.19 | [8] -0.017 | epoxomicin -0.129 | [9] -0.046 | [10] -0.063 | [11] -0.152 | rosiglitazone 0.074 | [12] 0.163 | [13] 0.042
